Source: patent US12409172B2, “Dosage regimen” (UNION therapeutics A/S, priority 2023, dated 2025)
The name of at least one read-out is uncertain.

Test: Clinical trial LP0058-1442 in healthy volunteers: PK of modified-release tablet vs immediate-release capsule
Assay type: in vivo, human
Details: single oral dose and multiple doses up to 60 mg, fasting state
Description: The modified-release formulation was studied in a clinical trial (LP0058-1442) and administered in a total of 36 healthy volunteers: 18 in part 1, 9 in part 2, and 9 in part 3. Twenty-seven (27) healthy volunteers received a single administration of 30 mg orismilast, and 9 subjects received multiple administrations over a period of 17 days with an up-titration up to a maximum of 60 mg BID. Part 1 of this study was to evaluate the key PK parameters of the new modified-release formulation compared to the reference capsule formulation with immediate release. Orismilast was rapidly absorbed from both formulations with median tmax values of 3.00 hours post-dose for the immediate-release capsule and 2.52 hours post-dose for the modified-release tablet. The individual tmax ranges were approximately 1 to 6 hours post-dose for the immediate-release capsule and 1 to 4 hours post-dose for the modified-release tablet. […] It can therefore be reasonably assumed that the safety profile resulting from systemic effects can be extrapolated from studies having investigated the immediate-release formulation and in particular, study LP0058-1072, a Phase 2a study including 36 patients with moderate to severe psoriasis vulgaris.
Following administration of modified release tablet as a single oral dose and after multiple doses up to 60 mg, orismilast reached a Cmax around 3 h under fasting state.

O=C(Cc1c(Cl)c[n+]([O-])cc1Cl)c1ccc(OC(F)F)c2c1OC1(CCS(=O)(=O)CC1)O2 [orismilast, 2-(3,5-dichloro-1-oxidopyridin-1-ium-4-yl)-1-[7-(difluoromethoxy)-1′,1′-dioxospiro[1,3-benzodioxole-2,4′-thiane]-4-yl]ethanone]
time at which orismilast reached Cmax: around 3 h
